Measurements: article PMC9917400
Results are given in words; binding and its absence hold for the method and conditions named. Binding seen in cells or lysates may run through a third protein. Some binding calls cover weakened binding; strength is not graded here.

Chains of the proteins cited; added tags and fusions are not shown. Residues count along the entry.
UniProt P17302: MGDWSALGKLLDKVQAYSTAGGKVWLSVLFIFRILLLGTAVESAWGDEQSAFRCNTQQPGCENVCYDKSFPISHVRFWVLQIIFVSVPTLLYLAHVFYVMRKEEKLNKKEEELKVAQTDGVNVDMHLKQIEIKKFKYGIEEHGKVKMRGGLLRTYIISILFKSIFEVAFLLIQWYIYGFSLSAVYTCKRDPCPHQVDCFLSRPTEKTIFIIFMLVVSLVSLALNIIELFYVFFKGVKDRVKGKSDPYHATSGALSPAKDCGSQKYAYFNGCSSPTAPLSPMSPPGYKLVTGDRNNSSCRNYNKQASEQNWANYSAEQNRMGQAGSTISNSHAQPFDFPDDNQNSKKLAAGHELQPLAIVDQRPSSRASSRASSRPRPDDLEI
UniProt P63165, residues 1-97: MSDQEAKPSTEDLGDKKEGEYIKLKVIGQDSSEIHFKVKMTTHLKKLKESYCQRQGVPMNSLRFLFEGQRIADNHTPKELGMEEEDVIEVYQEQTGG

Key:
[1] = target: connexin 43 (Cx43), overexpressed in MDA-MB-231 cells (MDA-Cx43D) (UniProt P17302); test: proximity ligation; Duolink in situ proximity ligation assay in MDA-Cx43D cells on glass coverslips, fixed and permeabilized in ice-cold methanol; antibodies against SUMO-1, SUMO-2/3, Ub, Cx43 and URM-1
[2] = target: connexin 43 (Cx43), overexpressed in MDA-MB-231 cells (MDA-Cx43D) (UniProt P17302); test: co-IP; MDA-Cx43D cells, 2 or 24 h after PMA (100 ng/mL); washed in PBS with 10 mM NEM, lysed at pH 8 in 2% SDS, 50 mM Tris, diluted 10-fold in IP buffer (50 mM Tris-HCl pH 8, 200 mM NaCl, 0.1 mM EDTA, 0.5% NP-40, 10% glycerol); goat anti-human Cx43 (C-20) 12 h at 4 °C, protein A-agarose; Western blot

## small ubiquitin-like modifier-1 (SUMO-1) (from UniProt P63165 1-97)
[1]
  binding: binds
[2]
  binding: binds
